Data as given in publication PMC10808547.
These are yes or no findings as the source states them, for the method shown. Binding seen in cells or lysates may run through a third protein. Some results given as binding are weak or reduced against the parent protein; the word gives no strength.

Protein sequences, listed by entry. Tags and fused reporters are not part of them.
UniProt Q9H1P3: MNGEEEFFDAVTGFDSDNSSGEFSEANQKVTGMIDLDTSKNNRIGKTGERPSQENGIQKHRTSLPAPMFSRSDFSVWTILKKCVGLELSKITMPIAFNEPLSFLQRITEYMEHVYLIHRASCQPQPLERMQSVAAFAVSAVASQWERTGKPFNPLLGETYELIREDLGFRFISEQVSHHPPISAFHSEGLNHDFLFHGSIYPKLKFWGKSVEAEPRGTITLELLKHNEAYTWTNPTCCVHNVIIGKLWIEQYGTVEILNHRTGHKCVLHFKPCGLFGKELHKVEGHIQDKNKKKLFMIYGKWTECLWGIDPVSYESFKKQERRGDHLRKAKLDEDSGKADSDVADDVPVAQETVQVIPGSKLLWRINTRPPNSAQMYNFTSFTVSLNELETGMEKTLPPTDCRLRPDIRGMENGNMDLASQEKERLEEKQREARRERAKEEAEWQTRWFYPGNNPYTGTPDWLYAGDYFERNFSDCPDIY
UniProt P09874: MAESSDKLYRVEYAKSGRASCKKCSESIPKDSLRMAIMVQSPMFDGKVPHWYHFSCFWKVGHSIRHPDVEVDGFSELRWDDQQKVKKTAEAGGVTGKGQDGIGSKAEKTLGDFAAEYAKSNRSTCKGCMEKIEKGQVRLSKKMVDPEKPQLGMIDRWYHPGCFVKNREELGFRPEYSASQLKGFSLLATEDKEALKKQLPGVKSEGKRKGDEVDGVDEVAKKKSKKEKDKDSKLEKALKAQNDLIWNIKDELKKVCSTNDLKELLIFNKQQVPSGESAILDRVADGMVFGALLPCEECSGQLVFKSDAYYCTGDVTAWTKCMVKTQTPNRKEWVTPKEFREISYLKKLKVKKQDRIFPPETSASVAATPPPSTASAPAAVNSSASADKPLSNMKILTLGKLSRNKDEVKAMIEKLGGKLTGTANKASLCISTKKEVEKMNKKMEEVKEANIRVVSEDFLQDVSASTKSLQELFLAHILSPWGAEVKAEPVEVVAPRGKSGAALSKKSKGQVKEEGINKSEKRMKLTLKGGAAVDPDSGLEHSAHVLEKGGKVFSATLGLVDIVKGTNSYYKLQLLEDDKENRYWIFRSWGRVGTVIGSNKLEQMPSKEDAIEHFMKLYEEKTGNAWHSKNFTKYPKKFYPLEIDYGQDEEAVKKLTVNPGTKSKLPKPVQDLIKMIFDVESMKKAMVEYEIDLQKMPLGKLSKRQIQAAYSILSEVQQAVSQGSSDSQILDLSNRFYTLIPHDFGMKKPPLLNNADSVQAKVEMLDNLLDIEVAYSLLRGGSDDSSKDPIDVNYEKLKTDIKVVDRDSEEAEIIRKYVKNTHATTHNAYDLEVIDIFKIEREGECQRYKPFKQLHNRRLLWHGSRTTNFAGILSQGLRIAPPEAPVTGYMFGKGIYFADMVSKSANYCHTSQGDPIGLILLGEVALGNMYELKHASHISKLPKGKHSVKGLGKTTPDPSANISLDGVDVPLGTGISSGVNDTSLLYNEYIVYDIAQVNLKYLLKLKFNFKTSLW

Molecular target: OSBPL2 (human (in CRC cell lines; endogenous or overexpressed not stated)) (UniProt Q9H1P3)
Assay: co-IP; CRC cell lysate (RIPA lysis buffer), pre-cleared with IgG and protein A/G agarose beads 1 h at 4 °C, specific antibody (or IgG) with protein A/G magnetic beads overnight at 4 °C, three washes with PBS; SDS-PAGE

binding: binds
Substance: PARP1 (from UniProt P09874 1-1014) (enzyme)
